{"source": "patent US6670183B2", "about": "“88kDa tumorigenic growth factor and antagonists” (A & G Pharmaceutical, Inc., priority 1997, dated 2003)", "tested_on": "GP88 cell surface receptors on CCL64 cells", "assay": "^125I-GP88 binding to CCL64 cells, Scatchard analysis", "parameters": "species or system mink", "description": "Recombinant GP88 (rGP88) was iodinated by the chloramine T method at 4° C. Other known methods can also be applied. Briefly, 1 μg of GP88 was incubated for 2 min with ^125I Na (100 μCi) that had been preincubated for 90 seconds with 2 μg chloramine T. The reaction was quenched with the addition of 100 μl saturated tyrosine, 10 μl of a 1% solution of bovine serum albumin (BSA) and 2 μg of sodium metabisulfite. After addition of 100 μl PBS, the iodinated protein was separated from free Na^125I by gel filtration on a Sephadex-G50 column that had been preincubated with PBS containing 1% bovine serum albumin and then extensively washed with PBS to reduce non-specific binding. The labeled proteins were eluted with PBS and fractions monitored for radioactivity. Amount of incorporated radioactivity was estimated by TCA precipitation. Specific activity of ^125I-GP88 was typically 30-50 μCi/μg. […]\nThe example provided here describes binding assay with the mink lung epithelial cell line CCL64 but has also been applied to several cell lines including the 1246, PC cell lines and the mammary epithelial cell line C57MG. […] The cells were harvested by centrifugation, washed with culture medium and counted with a hemocytometer. […] Cell pellets were counted with a gamma counter. […]"}
{"molecule": "rGP88: recombinant mouse GP88 expressed in baculovirus infected Sf9 insect cells; iodinated as binding ligand (protein) TQCPDGQFCPVACCLDQGGANYSCCNPLLDTWPRITSHHLDGSCQTHGHCPAGYSCLLTVSGTSSCCPFSKGVSCGDGYHCCPQGFHCSADGKSCFQMSDNPLGAVQCPGSQFECPDSATCCIMVDGSWGCCPMPQASCCEDRVHCCPHGASCDLVHTRCVSPTGTHTLLKKFPAQKTNSAVSLPFSVVCPDAKTQCPDDSTCCELPTGKYGCCPMPNAICCSDHLHCCPQDTVCDLIQSKCLSKNYTTDLLTKLPGYPVKEVKCDMEVSCPEGYTCCRLNTGAWGCCPFAKAVCCDDHIHCCPAGFQCHTEKGTCEMGILQVGWMKKVIAPLRLPDPQILKSDTPCDDFTRCPTNNTCCKLNSGDWGCCPIPEAVCCSDNQHCCPQGFTCLAQGYCQKGDTMVAGLEKIPARQTTPLQIGDIGCDQHTSCPVGQTCCPSLKGSWACCQLPHAVCCEDRQHCCPAGYTCNVKARTCEKDVDFIQPPVLLTLGPKVGNVECGEGHFCHDNQTCCKDSAGVWACCPYLKGVCCRDGRHCCPGGFHCSARGTKCLRKKIPRWDMFLRDPVPRPLL", "values": [{"measurement": "sites/cell, high affinity class", "result": "560±170", "unit": "sites/cell"}, {"measurement": "sites/cell, low affinity class", "result": "17,000±5900 sites/cell"}]}
